The text below walks through data of PMC7819943, “Rice protein-binding microarrays: a tool to detect cis-acting elements near promoter regions in rice”.

Some of the results follow.

This test has as its target T1, OsSMF1 (Oryza sativa, UniProt Q6ZLB0 1-436).
T1 sequence: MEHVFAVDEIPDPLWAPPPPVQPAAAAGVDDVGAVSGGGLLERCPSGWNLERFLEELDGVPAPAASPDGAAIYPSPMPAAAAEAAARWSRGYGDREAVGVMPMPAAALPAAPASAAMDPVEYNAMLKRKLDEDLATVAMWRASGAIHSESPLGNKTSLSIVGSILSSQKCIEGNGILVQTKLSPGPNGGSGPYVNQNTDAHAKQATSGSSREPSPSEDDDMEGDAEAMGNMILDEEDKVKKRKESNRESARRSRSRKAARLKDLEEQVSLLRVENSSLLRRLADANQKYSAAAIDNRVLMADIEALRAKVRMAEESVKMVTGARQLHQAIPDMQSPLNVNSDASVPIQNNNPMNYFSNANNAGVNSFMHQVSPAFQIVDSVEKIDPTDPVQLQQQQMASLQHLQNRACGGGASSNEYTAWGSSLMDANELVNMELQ
As to the kind of experiment: protein-binding microarray (RPBM); PBS, 2% BSA, 51.3 ng/ul salmon testes DNA, 50 uM zinc acetate, 200 nM TF, 25 C, 1 h; high values mean tight binding. The note with it: protein: recombinant; tags: N-terminal polyhistidine and DsRed monomer fusion (pET32a); chain copies: 2; label: CyDye5-dUTP incorporated in the synthesized complementary strand; 3' TTTTT single-stranded linker to array surface; dsDNA, one strand shown. The method, boiled down: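 A custom Agilent array was converted to double-stranded form by primer extension with Cy5-dUTP and blocked with 2% BSA. Protein at 200 nM in PBS with 2% BSA, salmon testes DNA and 50 µM zinc acetate was applied for 1 h at 25 °C, followed by washing. The proteins were polyhistidine–DsRed N-terminal fusions of transcription factors, expressed in E. coli BL21-CodonPlus and Ni–NTA-purified. The binding signal is per-feature fluorescence intensity (arbitrary units) from an Axon 4000B scanner.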
In the case of “ATAAATAGAATGCTGACTGGACTGCCACGCGTACGCCATGCGGAGTCACCTAGTGCAG”, the binding signal was 22000 fluorescence intensity (a.u.).

As to “TTATTTATAACTGATCTAATAGCCAATTCACACAATAATTCGGAGTCACCTAGTGCAG”, the binding signal is 13700 fluorescence intensity (a.u.).

On to “TACCGTCGTGCTCCATCAATTCCATCTCCACGTGTTATTGCGGAGTCACCTAGTGCAG”, for which the binding signal is 4780 fluorescence intensity (a.u.). “TTATAAGGCTGATGGAAACACATCCTATCTCCTTAGTCAGCGGAGTCACCTAGTGCAG”: the binding signal is 4180 fluorescence intensity (a.u.). With “AAATGCATATGTGTATGACAGGTGTGACCATATATTAATTCGGAGTCACCTAGTGCAG”, the binding signal was 3430 fluorescence intensity (a.u.).

For the sequence “TTGTTGGTGTTGCTGGCGCGGGACGTGTTCTGGCCCATCTCGGAGTCACCTAGTGCAG”, the binding signal was 3540 fluorescence intensity (a.u.). The same measure for “TGTTGTACAGTATATTGTAATCTTGCCAAGTTGTAACGATCGGAGTCACCTAGTGCAG”: 3570 fluorescence intensity (a.u.); for “TCGTTGAGAAATCAATAATCCACGCGCCATTTCATTGGTACGGAGTCACCTAGTGCAG”: 3310 fluorescence intensity (a.u.); for “TAGAAGAGAGAGAATGACACGTGGGCTCCACATTCTTAATCGGAGTCACCTAGTGCAG”: 13800 fluorescence intensity (a.u.).

Turning to “GCTAGGATGGTTTGGGATTGTGTGGGTTATGTTGTCTTTGCGGAGTCACCTAGTGCAG”, the binding signal was 3860 fluorescence intensity (a.u.). Regarding “ACCACCACCTTGATGTCCCTCTAAATGAGGAAACCCTCGCCGGAGTCACCTAGTGCAG”, the binding signal is 17000 fluorescence intensity (a.u.).

Turning to “GCTGCCGGCTGTCCTCGTCACGCGATCCCGACCGGCGCTTCGGAGTCACCTAGTGCAG”, the binding signal was 5070 fluorescence intensity (a.u.). The same measure for “TATAATCGTGTGTTTCGTTTTCCGTGTCAGGAGGCAAGGTCGGAGTCACCTAGTGCAG”: 3950 fluorescence intensity (a.u.); for “CGTTTCTACCTCGGCCCAATCGGAGCCCGACACGTATGTCCGGAGTCACCTAGTGCAG”: 6820 fluorescence intensity (a.u.). For “CTTCGTCGCTTCCGCGTGTCGTCACACTCCACTCCGTCCACGGAGTCACCTAGTGCAG”, the binding signal was 5840 fluorescence intensity (a.u.). As to “AAGAGGTGACGTGAAAACTCGTCCTCGCCTTGGTTTTAAGCGGAGTCACCTAGTGCAG”, the binding signal was 3680 fluorescence intensity (a.u.).

For “TTCAGATCCGCGCGCTGAGGTCACTGTAGAACACGGCGGTCGGAGTCACCTAGTGCAG”, the binding signal was 13500 fluorescence intensity (a.u.). Consider “TAATGGATTTGTTTGGTCATCTACATGGGAGGGTGGCTCACGGAGTCACCTAGTGCAG”, for which the binding signal is 4710 fluorescence intensity (a.u.). The same measure for “CGAGCAGCAGCCCATGTGGGCCCACCTCGTCAGCGGCACGCGGAGTCACCTAGTGCAG”: 5000 fluorescence intensity (a.u.); for “TCTGTAGCCGAAGTCACTTAACTTTATCACTGATATGTGGCGGAGTCACCTAGTGCAG”: 3230 fluorescence intensity (a.u.); for “CAAGCTCGGTAGGAGTAGCAGTAGCTCTGTTGTTCGGTTGCGGAGTCACCTAGTGCAG”: 37200 fluorescence intensity (a.u.). Regarding “CGTCCACCGCGCCGCCGCCGCCCTCCGTCACGCGCGCGCTCGGAGTCACCTAGTGCAG”, the binding signal is 3270 fluorescence intensity (a.u.).

For “ATTACTCTCGCTGTCGCTGGCCGTGGCGTTCCTGGCCGCACGGAGTCACCTAGTGCAG”, the binding signal was 3240 fluorescence intensity (a.u.).

Regarding “CCAAAGGGGCAAGCCTATACACTATTTACCTGAACTTTGCCGGAGTCACCTAGTGCAG”, the binding signal was 3300 fluorescence intensity (a.u.). With “CTCCTCCGTCTCGCGCCCGCCGCCGCCGCCACCGCCACCGCGGAGTCACCTAGTGCAG”, the binding signal is 4480 fluorescence intensity (a.u.). The same measure for “CTTGCTCTCCGCCAGCTCTGCCACCTCCTCGCACGCGCCGCGGAGTCACCTAGTGCAG”: 3740 fluorescence intensity (a.u.); for “TTAGCCCTTTTGCTTCATATGTTTGACCAGATGCTTTCAACGGAGTCACCTAGTGCAG”: 25600 fluorescence intensity (a.u.). With “CCTCCTCCGGCTCCATCAGCTCGTCACGACCGGCGTCTCTCGGAGTCACCTAGTGCAG” the figure was 3360 fluorescence intensity (a.u.); with “TGATGACGTCGTCACGCTGACACATGGGGCCCACGTGGGTCGGAGTCACCTAGTGCAG”, 19600 fluorescence intensity (a.u.); with “GCATCATGTCACGTGTGACGCCCTCGTCTCCGTCCTACTCCGGAGTCACCTAGTGCAG”, 5710 fluorescence intensity (a.u.).

As for “ATAATCAAACACGCCCCGTCACTTCGCCGCACACATCACACGGAGTCACCTAGTGCAG”, the binding signal was 5560 fluorescence intensity (a.u.). Consider “ACGATCGATCCACCGACCAACGTGGCGACCCCTCATTGGTCGGAGTCACCTAGTGCAG”, for which the binding signal was 4610 fluorescence intensity (a.u.). As to “CCGGCAGCCCGGCACCACGTACGCCACCGCCATCTCACGCCGGAGTCACCTAGTGCAG”, the binding signal is 5100 fluorescence intensity (a.u.). With “TGGGTCCTGCTTGATGACTCAGCAAGTCAACTGCCATATACGGAGTCACCTAGTGCAG” the figure was 8180 fluorescence intensity (a.u.); with “CTACTGAGCATAATTAATTTATAATTAGCATATGTGATAACGGAGTCACCTAGTGCAG”, 3370 fluorescence intensity (a.u.); with “GAGGCGAGGCGACGGTACGTGTCCTCTTTTCTCTCTCGATCGGAGTCACCTAGTGCAG”, 4270 fluorescence intensity (a.u.).

As for “GATGCATCATGCACCTGCCCTTCTAAATTAACCTTGCACGCGGAGTCACCTAGTGCAG”, the binding signal was 3150 fluorescence intensity (a.u.). With “TTCCAACAATGCGCCCACGTCCGGGTAACATCCGGCGCTTCGGAGTCACCTAGTGCAG” the figure was 3280 fluorescence intensity (a.u.). Consider “CGTGTAAATACTACAAATCCGCCACCGCAACATTTTCATCCGGAGTCACCTAGTGCAG”, for which the binding signal was 3180 fluorescence intensity (a.u.). With “GGGGCGAGGAGGTGGCTGGATGCTGCTGTCACCTCTGGGCCGGAGTCACCTAGTGCAG”, the binding signal is 4640 fluorescence intensity (a.u.).

As to “TCAGCTCTCACCCGCGGGGAGAAGGGAGGAACACGGAGAACGGAGTCACCTAGTGCAG”, the binding signal was 30300 fluorescence intensity (a.u.). In the case of “AGGTGAGCCGGCGCTGAGTTTCCCACAGTCAGCGCCATTACGGAGTCACCTAGTGCAG”, the binding signal was 3250 fluorescence intensity (a.u.).
